Measured values as given in the supplement of paper PMC10849652.
Some of the results follow.

By UniProt entry, the sequences of proteins in these tests, tags left out. Where a name states a change or a piece, a line headed by the entry shows the natural chain unless it says otherwise.
UniProt Q8WXG6, whole entry, looked up: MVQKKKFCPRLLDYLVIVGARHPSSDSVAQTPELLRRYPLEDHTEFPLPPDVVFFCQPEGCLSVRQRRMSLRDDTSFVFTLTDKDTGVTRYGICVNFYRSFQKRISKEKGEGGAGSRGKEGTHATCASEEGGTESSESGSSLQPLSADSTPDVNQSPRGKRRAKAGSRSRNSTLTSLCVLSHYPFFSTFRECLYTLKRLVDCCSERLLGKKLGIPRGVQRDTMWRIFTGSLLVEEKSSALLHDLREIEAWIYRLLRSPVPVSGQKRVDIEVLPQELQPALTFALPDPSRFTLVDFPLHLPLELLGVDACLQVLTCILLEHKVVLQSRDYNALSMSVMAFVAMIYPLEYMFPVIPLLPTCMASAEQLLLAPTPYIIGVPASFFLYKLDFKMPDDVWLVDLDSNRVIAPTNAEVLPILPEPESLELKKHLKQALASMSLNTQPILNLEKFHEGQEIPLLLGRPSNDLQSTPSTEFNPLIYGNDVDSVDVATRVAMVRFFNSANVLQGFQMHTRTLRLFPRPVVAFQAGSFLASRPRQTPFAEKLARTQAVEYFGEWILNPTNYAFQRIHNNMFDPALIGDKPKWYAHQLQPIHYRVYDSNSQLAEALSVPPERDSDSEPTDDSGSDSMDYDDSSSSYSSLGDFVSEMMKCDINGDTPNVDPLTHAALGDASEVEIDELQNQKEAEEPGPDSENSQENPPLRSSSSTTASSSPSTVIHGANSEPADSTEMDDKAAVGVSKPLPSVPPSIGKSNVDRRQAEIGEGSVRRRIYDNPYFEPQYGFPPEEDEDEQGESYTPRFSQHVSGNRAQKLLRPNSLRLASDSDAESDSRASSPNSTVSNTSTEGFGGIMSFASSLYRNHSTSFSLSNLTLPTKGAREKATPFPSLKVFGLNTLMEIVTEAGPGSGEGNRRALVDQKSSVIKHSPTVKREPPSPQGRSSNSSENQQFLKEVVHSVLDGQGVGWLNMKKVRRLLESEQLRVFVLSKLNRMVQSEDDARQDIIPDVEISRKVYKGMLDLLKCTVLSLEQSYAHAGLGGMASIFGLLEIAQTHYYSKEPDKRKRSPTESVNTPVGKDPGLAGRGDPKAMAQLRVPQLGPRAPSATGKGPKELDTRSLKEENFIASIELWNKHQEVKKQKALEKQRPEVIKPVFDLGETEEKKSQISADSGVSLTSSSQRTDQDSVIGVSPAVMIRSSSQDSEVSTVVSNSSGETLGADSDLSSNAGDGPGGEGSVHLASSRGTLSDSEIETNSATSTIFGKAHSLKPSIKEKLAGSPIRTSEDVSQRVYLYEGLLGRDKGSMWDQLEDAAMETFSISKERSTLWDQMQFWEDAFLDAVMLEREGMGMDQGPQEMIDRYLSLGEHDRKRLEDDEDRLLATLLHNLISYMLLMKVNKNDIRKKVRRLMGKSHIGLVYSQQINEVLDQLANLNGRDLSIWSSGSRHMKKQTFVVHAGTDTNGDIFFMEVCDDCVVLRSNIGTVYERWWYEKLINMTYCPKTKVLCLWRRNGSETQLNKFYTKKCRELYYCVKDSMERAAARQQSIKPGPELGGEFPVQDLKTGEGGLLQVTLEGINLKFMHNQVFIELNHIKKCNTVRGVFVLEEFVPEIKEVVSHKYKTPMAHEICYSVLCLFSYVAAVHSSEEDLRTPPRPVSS
UniProt Q9NQ48: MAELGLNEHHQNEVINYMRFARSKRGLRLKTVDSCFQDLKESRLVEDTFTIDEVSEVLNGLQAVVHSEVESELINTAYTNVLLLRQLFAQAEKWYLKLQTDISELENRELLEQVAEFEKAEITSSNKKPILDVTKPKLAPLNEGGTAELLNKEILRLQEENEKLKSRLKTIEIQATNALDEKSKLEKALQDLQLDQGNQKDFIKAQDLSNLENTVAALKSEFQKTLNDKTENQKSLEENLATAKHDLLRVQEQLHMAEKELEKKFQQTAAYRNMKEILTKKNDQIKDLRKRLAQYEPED
UniProt Q8WZA0: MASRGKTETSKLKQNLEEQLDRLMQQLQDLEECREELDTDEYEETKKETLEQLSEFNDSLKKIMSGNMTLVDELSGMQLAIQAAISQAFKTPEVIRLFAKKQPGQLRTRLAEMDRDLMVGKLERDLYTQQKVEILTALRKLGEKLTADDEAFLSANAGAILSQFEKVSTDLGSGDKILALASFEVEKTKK
UniProt Q8N5G2: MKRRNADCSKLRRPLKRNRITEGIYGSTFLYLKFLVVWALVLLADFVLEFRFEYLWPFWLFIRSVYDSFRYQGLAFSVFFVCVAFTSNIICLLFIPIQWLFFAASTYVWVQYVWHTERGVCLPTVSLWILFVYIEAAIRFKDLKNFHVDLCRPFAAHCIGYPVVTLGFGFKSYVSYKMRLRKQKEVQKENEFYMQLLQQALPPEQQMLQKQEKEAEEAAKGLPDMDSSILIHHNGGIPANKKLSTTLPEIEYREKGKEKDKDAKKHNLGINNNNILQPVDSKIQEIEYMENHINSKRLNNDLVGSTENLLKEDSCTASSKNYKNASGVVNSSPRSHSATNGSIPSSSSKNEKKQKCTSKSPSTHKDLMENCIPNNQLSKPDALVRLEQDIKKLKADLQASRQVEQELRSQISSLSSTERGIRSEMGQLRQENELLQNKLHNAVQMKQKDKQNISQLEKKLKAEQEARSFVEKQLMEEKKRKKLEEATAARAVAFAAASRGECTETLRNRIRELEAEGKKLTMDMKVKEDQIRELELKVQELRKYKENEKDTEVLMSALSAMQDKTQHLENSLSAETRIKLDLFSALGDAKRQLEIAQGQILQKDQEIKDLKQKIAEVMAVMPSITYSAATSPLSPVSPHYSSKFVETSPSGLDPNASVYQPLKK
UniProt Q5U5X0: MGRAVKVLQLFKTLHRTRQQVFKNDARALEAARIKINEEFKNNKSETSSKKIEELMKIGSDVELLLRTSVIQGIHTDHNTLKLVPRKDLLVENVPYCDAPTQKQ
UniProt Q5TCQ9: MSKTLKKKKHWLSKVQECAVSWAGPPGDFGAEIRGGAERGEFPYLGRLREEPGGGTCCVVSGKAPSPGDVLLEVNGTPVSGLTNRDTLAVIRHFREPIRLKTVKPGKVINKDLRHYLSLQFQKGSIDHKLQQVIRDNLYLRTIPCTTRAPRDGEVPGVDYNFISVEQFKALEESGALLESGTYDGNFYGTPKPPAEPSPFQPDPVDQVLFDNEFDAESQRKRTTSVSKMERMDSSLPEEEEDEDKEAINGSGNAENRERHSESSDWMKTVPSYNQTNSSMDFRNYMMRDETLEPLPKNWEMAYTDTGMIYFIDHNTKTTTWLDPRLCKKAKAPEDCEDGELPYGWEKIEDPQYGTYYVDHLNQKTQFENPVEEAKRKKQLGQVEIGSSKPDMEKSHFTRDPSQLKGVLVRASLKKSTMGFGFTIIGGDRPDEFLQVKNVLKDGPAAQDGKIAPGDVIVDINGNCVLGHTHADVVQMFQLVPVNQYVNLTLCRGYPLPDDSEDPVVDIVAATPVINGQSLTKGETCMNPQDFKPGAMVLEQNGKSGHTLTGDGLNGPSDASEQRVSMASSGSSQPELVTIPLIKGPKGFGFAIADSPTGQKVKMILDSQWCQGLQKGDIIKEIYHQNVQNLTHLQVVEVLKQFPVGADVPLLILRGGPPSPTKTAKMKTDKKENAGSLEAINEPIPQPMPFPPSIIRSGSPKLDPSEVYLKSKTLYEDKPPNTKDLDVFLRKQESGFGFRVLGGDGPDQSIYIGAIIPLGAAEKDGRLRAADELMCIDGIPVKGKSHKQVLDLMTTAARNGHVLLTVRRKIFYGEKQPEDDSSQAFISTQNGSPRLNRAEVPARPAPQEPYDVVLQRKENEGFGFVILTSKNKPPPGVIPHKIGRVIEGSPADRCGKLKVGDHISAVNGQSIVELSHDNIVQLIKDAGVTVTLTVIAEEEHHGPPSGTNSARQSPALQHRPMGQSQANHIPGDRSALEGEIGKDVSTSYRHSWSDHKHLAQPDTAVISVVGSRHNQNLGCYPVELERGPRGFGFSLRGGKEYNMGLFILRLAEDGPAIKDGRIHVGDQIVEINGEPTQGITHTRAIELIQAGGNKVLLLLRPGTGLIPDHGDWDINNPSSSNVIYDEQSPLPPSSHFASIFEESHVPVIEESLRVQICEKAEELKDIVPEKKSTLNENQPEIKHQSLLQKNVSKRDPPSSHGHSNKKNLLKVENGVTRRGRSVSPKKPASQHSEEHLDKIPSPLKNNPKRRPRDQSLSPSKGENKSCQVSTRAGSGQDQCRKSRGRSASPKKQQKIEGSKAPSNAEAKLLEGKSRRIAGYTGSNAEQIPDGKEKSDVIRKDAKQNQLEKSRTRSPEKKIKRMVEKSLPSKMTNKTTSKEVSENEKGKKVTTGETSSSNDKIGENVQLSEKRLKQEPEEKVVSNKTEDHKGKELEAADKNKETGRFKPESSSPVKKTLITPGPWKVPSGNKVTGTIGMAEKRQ
UniProt P55145: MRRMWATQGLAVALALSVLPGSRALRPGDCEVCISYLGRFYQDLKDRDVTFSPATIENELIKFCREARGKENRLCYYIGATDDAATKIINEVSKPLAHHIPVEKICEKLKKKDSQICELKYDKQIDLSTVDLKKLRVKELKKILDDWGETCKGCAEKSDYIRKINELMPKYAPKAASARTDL
UniProt Q7Z3D4: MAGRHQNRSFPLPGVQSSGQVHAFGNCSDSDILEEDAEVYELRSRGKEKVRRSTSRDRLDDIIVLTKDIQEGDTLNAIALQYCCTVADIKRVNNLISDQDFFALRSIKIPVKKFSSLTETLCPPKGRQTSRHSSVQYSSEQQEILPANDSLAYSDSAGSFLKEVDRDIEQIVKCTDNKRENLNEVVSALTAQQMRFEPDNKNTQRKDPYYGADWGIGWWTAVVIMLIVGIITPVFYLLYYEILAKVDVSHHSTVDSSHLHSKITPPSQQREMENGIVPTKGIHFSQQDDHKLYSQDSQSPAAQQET
UniProt Q9HD34: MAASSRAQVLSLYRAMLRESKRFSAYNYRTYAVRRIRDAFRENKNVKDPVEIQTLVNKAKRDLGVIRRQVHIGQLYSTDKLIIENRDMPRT
UniProt O60476: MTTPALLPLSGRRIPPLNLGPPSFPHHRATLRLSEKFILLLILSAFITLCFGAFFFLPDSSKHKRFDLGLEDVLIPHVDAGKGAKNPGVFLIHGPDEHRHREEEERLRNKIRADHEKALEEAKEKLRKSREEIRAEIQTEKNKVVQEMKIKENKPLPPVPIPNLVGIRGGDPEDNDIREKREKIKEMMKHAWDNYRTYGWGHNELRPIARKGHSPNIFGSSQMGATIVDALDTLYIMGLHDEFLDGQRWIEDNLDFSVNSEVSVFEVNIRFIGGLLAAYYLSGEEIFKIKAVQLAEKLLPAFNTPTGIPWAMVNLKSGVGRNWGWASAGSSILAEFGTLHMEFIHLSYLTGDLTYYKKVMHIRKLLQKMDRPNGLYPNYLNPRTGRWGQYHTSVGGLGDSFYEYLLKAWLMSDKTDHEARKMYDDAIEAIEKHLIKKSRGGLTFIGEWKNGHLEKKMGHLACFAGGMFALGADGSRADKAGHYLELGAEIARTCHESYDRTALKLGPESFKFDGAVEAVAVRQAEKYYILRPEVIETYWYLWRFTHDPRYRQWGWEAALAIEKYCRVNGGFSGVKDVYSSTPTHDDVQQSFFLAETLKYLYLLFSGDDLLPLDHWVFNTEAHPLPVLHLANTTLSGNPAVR
UniProt Q3KQU3: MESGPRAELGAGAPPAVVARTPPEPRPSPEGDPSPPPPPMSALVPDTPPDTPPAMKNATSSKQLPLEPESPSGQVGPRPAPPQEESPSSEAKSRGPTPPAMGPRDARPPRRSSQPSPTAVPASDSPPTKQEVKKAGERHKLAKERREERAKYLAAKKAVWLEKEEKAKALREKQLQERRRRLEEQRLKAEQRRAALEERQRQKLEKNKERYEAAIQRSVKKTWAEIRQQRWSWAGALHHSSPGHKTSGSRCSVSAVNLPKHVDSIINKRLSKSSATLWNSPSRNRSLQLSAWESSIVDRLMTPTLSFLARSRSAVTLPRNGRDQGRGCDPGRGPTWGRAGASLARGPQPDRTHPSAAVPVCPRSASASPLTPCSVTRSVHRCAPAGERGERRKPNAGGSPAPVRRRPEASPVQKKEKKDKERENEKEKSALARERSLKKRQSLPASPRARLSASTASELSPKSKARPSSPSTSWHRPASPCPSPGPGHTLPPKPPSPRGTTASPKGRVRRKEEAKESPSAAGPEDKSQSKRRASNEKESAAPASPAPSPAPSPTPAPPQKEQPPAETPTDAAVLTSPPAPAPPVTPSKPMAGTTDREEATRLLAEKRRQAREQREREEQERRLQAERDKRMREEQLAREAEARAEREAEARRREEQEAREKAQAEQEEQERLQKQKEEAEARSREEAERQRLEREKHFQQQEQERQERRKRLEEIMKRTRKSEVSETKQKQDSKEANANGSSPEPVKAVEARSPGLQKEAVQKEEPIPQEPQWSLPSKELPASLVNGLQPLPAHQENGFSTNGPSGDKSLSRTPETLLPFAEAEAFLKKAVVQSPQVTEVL
UniProt Q9Y4Z0: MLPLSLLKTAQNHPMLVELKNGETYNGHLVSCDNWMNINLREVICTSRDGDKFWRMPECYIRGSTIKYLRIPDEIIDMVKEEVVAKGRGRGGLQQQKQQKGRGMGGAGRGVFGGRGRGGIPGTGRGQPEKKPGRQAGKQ

Compound: c1cn2cc(-c3ccc4cn[nH]c4c3)nc(Nc3ccc(N4CCOCC4)cc3)c2n1 [entospletinib]
Experiment: log2 fold change, soluble protein after heating vs DMSO (PISA); higher = thermal stabilisation; K562 cells, 10 uM, 30 min; active = over 0.2 and 3.5 SD of the protein, either way, in both replicates (recomputed)
Outline: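 K562 cells at 2×10^6 cells/mL were treated with 10 μM compound for 30 min. Aliquots were heated for 3 min across 48°C-58°C, pooled, and extracted in PBS with 0.5% NP-40 at 4°C; soluble protein was the supernatant after 21,000xg for 90 min. Soluble protein was quantified by TMTpro 16plex LC-MS/MS with channel sums equalised, and reported as log2 fold change in thermal stability against DMSO controls, with values from duplicates.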

log2 fold change, inactive:
LSM8 (UniProt O95777) -0.033
MAGT1 (UniProt Q9H0U3) 0.006
MAP1B (UniProt P46821) 0.017
MADD isoform 2 (UniProt Q8WXG6) 0.107
MAGED2 (UniProt Q9UNF1) -0.272
LZTFL1 (UniProt Q9NQ48) 0.023
LZIC isoform 2 (UniProt Q8WZA0) 0.019
MAP1A isoform 2 (UniProt P78559) 0.052
MACO1 (UniProt Q8N5G2) 0.022
LYRM7 (UniProt Q5U5X0) 0.01
LYRM1 (UniProt O43325) -0.011
MAGI3 isoform 1 (UniProt Q5TCQ9) -0.086
MANF (UniProt P55145) -0.015
LRWD1 (UniProt Q9UFC0) -0.036
MAD2L2 (UniProt Q9UI95) 0.078
MAP1S (UniProt Q66K74) -0.026
LYSMD3 (UniProt Q7Z3D4) 0.055
LTBP4 (UniProt Q8N2S1) 0.147
MACF1 (UniProt Q9UPN3) 0.105
LYSMD2 (UniProt Q8IV50) 0.001
LYRM4 (UniProt Q9HD34) -0.02
MAN1A2 (UniProt O60476) 0.033
MAN1A1 (UniProt P33908) 0.018
MAN1B1 (UniProt Q9UKM7) 0.139
LYPLA1 (UniProt O75608) 0.019
LYZ (UniProt P61626) -0.079
MAP7D1 (UniProt Q3KQU3) 0.068
LSM4 (UniProt Q9Y4Z0) -0.031
MAGEB2 (UniProt O15479) 0.262

Fetched one by one from the entries so far:
log2 fold change, inactive:
MAP7D1 (UniProt Q3KQU3) 0.068
LSM4 (UniProt Q9Y4Z0) -0.031
